# Results deposited as PubChem BioAssay AID493246 (Drosophila RNAi Screening Center, 2011).
# Assay: 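Genome-wide search for dsRNAs that reduce cell number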 (primary screen)
# Cells: Drosophila Kc and S2R+ cells
# Reagents: long dsRNA against Drosophila genes
# Measurement: 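Cell number per well after knock-down, printed as raw plate values; calls were based on per-plate z-scores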
# Scale: Kc cell number and S2R+ cell number: higher = more cells remaining
# Hit rule: 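Counted as a hit if cell number falls by a z-score of at least 3 within its plate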
# The screen tested about 21,000 reagents; this is a random part of those that have a named target and a result. Of all reagents, 429 (2%) were called active. 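Values are raw and not normalised between plates; calls rest on per-plate z-scores that were not deposited.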 Names joined by + are all predicted targets of the reagent. No sequences are given here. Not given: the amount of reagent, the time to read-out.
target,DRSC id,"Kc cell number, rep 1","Kc cell number, rep 2","S2R+ cell number, rep 1","S2R+ cell number, rep 2",call
sc (GeneID 30982),DRSC18830,1.56e6,1.58e6,1.02e6,1.16e6,inactive
Atf6 (GeneID 35480),DRSC04743,1.53e6,1.62e6,1.02e6,1.15e6,inactive
Atf6 (GeneID 35480),DRSC04889,1.55e6,1.40e6,1.30e6,1.27e6,inactive
naz (GeneID 42204),DRSC14790,1.22e6,1.13e6,1.10e6,1.22e6,inactive
naz (GeneID 42204),DRSC16199,1.29e6,1.26e6,1.14e6,1.25e6,inactive
Ir94h (GeneID 42769),DRSC15232,1.44e6,1.43e6,1.09e6,1.15e6,inactive
Tim9a (GeneID 32294),DRSC19753,1.57e6,1.49e6,1.12e6,1.22e6,inactive
CG15209 (GeneID 32011),DRSC19655,1.85e6,1.74e6,1.10e6,1.22e6,inactive
l(3)psg2 (GeneID 38630),DRSC10484,1.36e6,1.39e6,1.13e6,7.66e5,inactive
HPS4 (GeneID 37009),DRSC06906,1.89e6,1.81e6,1.34e6,1.70e6,inactive
CG9717 (GeneID 43636),DRSC16543,1.42e6,1.41e6,9.83e5,1.10e6,inactive
Ppa (GeneID 37602),DRSC04598,1.63e6,1.68e6,1.24e6,1.39e6,inactive
Mst57Da + alpha4GT2,DRSC13732,1.30e6,1.66e6,1.12e6,9.22e5,inactive
D1 (GeneID 41095),DRSC16638,1.53e6,1.62e6,1.22e6,1.28e6,inactive
CG43333 (GeneID 34830),DRSC01917,1.65e6,1.72e6,1.20e6,1.40e6,inactive
Jon99Ci (GeneID 43545),DRSC16860,1.47e6,1.46e6,1.07e6,1.20e6,inactive
CG13920 (GeneID 38203),DRSC08389,1.33e6,1.39e6,1.16e6,1.21e6,inactive
Jupiter (GeneID 41392),DRSC15204,1.58e6,1.69e6,1.14e6,1.23e6,inactive
Jupiter (GeneID 41392),DRSC15205,1.41e6,1.34e6,1.27e6,1.34e6,inactive
Jupiter (GeneID 41392),DRSC15389,1.44e6,1.46e6,1.18e6,1.30e6,inactive
CG3226 (GeneID 31597),DRSC18296,6.49e5,,9.39e5,,inactive
CG13603 (GeneID 42838),DRSC14606,1.50e6,1.45e6,1.17e6,1.21e6,inactive
mip130 (GeneID 31153),DRSC18575,1.51e6,1.50e6,1.01e6,1.13e6,inactive
Cyp6t2Psi (GeneID 3772355),DRSC01840,6.11e5,,9.47e5,,inactive
